Assay results as given in patent publication US9006258B2, “Method of treating female sexual dysfunction with a PDE1 inhibitor” (Intra-Cellular Therapies, Inc., priority 2006, dated 2015).
Some results were stated once for a whole list of compounds, not compound by compound.

Test system: female rats
Assay: Lordosis response in female rats (sexual response)
Format: in vivo, rat
Conditions: ovariectomized, cannulated wild-type female rats primed with 2 μg estrogen; intracerebroventricular injection 24 hours later; 0.1 mg; tested in presence of male rats

CN1C(=O)c2c(nn(Cc3ccc(-c4ccccc4)cc3)c2Nc2ccccc2)N2C1=N[C@@H]1CCC[C@@H]12 [Compound 1]
lordosis quotient (LQ=number of lordosis/10 mounts×100): over 75

CN1C(=O)c2c(nn(Cc3ccc(-c4ccccn4)cc3)c2Nc2ccccc2)N2C1=N[C@@H]1CCC[C@@H]12 [Compound 2]
lordosis quotient (LQ=number of lordosis/10 mounts×100): over 75
